Results published in the supplement of paper PMC3334620.
Whole data set: some 33,000 sequences, median “E-score (-0.5 to 0.5)” near -0.015, cut for the highest 2% near 0.3. This is one part of the list.

These sequences were tested against T1, Abf1 (UniProt P14164) (assay: PBM E-score (8-mer binding enrichment) (E-score (-0.5 to 0.5)); higher = stronger / more preferred TF binding). Conditions: protein concentration: 200 nM; construct: GST-full length.
T1 sequence: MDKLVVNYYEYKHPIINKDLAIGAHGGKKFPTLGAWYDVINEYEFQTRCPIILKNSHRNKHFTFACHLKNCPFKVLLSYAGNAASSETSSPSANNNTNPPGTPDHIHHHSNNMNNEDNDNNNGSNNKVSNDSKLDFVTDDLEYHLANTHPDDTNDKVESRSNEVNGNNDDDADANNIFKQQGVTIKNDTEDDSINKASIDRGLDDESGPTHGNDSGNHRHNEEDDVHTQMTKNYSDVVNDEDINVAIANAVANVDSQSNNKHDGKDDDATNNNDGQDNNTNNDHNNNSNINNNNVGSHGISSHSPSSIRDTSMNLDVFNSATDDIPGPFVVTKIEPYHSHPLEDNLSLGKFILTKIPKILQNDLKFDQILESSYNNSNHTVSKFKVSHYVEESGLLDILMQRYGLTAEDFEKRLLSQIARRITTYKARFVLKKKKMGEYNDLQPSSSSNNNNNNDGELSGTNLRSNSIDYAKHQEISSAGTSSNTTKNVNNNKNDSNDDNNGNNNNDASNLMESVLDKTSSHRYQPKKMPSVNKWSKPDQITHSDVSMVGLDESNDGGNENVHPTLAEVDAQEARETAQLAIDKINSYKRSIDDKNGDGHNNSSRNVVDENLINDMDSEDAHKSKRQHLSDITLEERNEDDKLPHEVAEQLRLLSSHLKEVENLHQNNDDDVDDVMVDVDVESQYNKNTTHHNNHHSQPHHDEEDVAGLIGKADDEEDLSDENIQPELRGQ
How it was run: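 The E-score, a modified Wilcoxon-Mann-Whitney statistic, was computed by the Universal PBM Analysis Suite for every ungapped eight-base word pooled with its reverse complement. Scans behind it were normalised with masliner after bound GST-tagged yeast transcription factors were detected with fluorescent anti-GST. The proteins, at about 100-200 nM, had been applied to universal all-10-mer Agilent arrays made double-stranded by primer extension.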

Compared with ATGCTGCA, ACTTTTCT is higher in “PBM E-score” value: -0.182 for the first, 0.111 for the second.

Going from GCCCCCCA to AAACAGTT, the “PBM E-score” value rises from -0.464 to 0.0109.

Going from GATTGGCC to GCTACAGC, the “PBM E-score” value falls from -0.0494 to -0.114.

Going from ACTGCCGA to CACACAAC, the “PBM E-score” value falls from 0.0232 to 0.00157.

Compared with ATAAACAG, CGGTTATC is higher in “PBM E-score” value: -0.186 for the first, 0.103 for the second.

Compared with GGTAGATA, AATAATGG is higher in “PBM E-score” value: -0.0169 for the first, 0.146 for the second.

First: TAACTAGA
Second: CAATCACG
The “PBM E-score” value of the first is lower: 0.0978 for the first, 0.13 for the second.

Going from TGTAAGAA to TCCGGCAA, the “PBM E-score” value falls from 0.101 to -0.187.

Going from CGAGGTAA to CTTAGGTA, the “PBM E-score” value rises from -0.0859 to 0.0631.

Compared with AACGACTA, AGAGACCA is lower in “PBM E-score” value: 0.269 for the first, -0.0401 for the second.

Going from AACCCGCT to ACTGAATA, the “PBM E-score” value rises from -0.17 to 0.0703.

Compared with ATGATACA, AAATACTT is higher in “PBM E-score” value: 0.202 for the first, 0.256 for the second.

First: GGCGTAAC
Second: ACATACGC
The “PBM E-score” value of the first is lower: -0.247 for the first, -0.0157 for the second.

First: GCCCAGCC
Second: AAAACGGT
The “PBM E-score” value of the first is lower: -0.164 for the first, -0.0129 for the second.

Going from ATTTTGAC to CTACCGAC, the “PBM E-score” value falls from 0.117 to -0.0536.

First: AATCACAG
Second: CAATTACG
The “PBM E-score” value of the first is higher: -0.00407 for the first, -0.0276 for the second.

Going from CTGAAACC to GCAAAACC, the “PBM E-score” value falls from 0.0234 to -0.145.

Compared with AAACAAAT, ACTGATCC is lower in “PBM E-score” value: 0.21 for the first, -0.091 for the second.

Compared with AACCACCC, GACTATAA is higher in “PBM E-score” value: -0.163 for the first, 0.0257 for the second.

Compared with CAGAACGG, ACACGTAT is higher in “PBM E-score” value: 0.096 for the first, 0.145 for the second.

Compared with CCCTAGAA, CGTCCCGA is lower in “PBM E-score” value: 0.0539 for the first, 0.0382 for the second.

Compared with ACGATCAC, ATGCTGGC is lower in “PBM E-score” value: 0.274 for the first, -0.0605 for the second.

First: AAGTACCT
Second: CGAAATTC
The “PBM E-score” value of the first is higher: 0.108 for the first, 0.0688 for the second.

Compared with ACGCCGCG, TACGCGGA is higher in “PBM E-score” value: -0.00778 for the first, 0.0466 for the second.

Going from CGGAAATA to AACTGCTT, the “PBM E-score” value falls from 0.156 to -0.0381.

Going from AATAGCCC to ATTGGTTA, the “PBM E-score” value falls from 0.0317 to 0.0166.

Compared with CCCGAACA, GGTTGCAA is higher in “PBM E-score” value: -0.119 for the first, -0.0601 for the second.

First: AGAATGTA
Second: AGCAAGAG
The “PBM E-score” value of the first is higher: 0.0866 for the first, -0.0245 for the second.

First: GCATATGC
Second: ACGCCGGC
The “PBM E-score” value of the first is lower: -0.0754 for the first, -0.00479 for the second.

Compared with TACACATA, AGGTAGCG is higher in “PBM E-score” value: -0.1 for the first, 0.152 for the second.

First: AGGGCTGA
Second: ACTGAACA
The “PBM E-score” value of the first is lower: 0.0256 for the first, 0.04 for the second.

Going from GAGGATAA to CTGCTTTC, the “PBM E-score” value falls from 0.0968 to 0.0309.

First: ATGGACAC
Second: AAGTAAAT
The “PBM E-score” value of the first is lower: 0.00876 for the first, 0.168 for the second.

Going from CGGTAGCA to ACGCGGCA, the “PBM E-score” value falls from 0.0244 to -0.126.

Going from AGGGCCGA to GAAAAGAA, the “PBM E-score” value falls from -0.0484 to -0.155.

Going from AGCTGTGC to AAGCATGC, the “PBM E-score” value rises from -0.193 to -0.0558.

First: CAGGATGC
Second: GTATTTAA
The “PBM E-score” value of the first is lower: -0.00529 for the first, 0.217 for the second.

Compared with GGCACACC, CGACTAAG is higher in “PBM E-score” value: -0.248 for the first, -0.0693 for the second.

Going from ATTTTCCC to TCTGCAGA, the “PBM E-score” value falls from -0.029 to -0.187.

Compared with TCTACGAA, CCATACTA is lower in “PBM E-score” value: 0.301 for the first, 0.0734 for the second.

Compared with CTCGTACC, AGATCTAG is lower in “PBM E-score” value: 0.184 for the first, -0.0922 for the second.

Compared with ATTTGATA, AGCATACT is lower in “PBM E-score” value: 0.254 for the first, -0.0545 for the second.

Compared with AGTGTCGC, AGTGGGAG is higher in “PBM E-score” value: -0.00443 for the first, 0.0446 for the second.

First: ATACACCA
Second: ATAGATAT
The “PBM E-score” value of the first is lower: 0.00822 for the first, 0.073 for the second.

Going from ACAACCTG to ACGTAAGG, the “PBM E-score” value rises from -0.0236 to 0.0863.

Compared with GCCTCGAC, GGAGAATA is higher in “PBM E-score” value: -0.0443 for the first, 0.0689 for the second.

Going from ACCTCATG to GCCGCAGC, the “PBM E-score” value falls from -0.044 to -0.257.

First: ACCGTAGC
Second: GTAATTAC
The “PBM E-score” value of the first is lower: -0.0668 for the first, 0.0663 for the second.

Going from GTGTCCAA to GTTTTAAA, the “PBM E-score” value rises from 0.027 to 0.0969.

Compared with GCGGGTGA, CAGAAGCG is lower in “PBM E-score” value: -0.033 for the first, -0.0849 for the second.

Going from CGTGCGGC to TAGTTGCA, the “PBM E-score” value falls from 0.218 to -0.0201.

Compared with GATATTTA, CGTCAACC is lower in “PBM E-score” value: 0.282 for the first, -0.0433 for the second.

First: CTGTTATC
Second: ACGCTGGA
The “PBM E-score” value of the first is higher: 0.146 for the first, 0.025 for the second.

Going from CAGGGAGG to CCACGACA, the “PBM E-score” value rises from -0.148 to 0.0558.

Compared with ATTCGGTC, GAGACAGA is higher in “PBM E-score” value: 0.0175 for the first, 0.0348 for the second.

First: GGTGGGCA
Second: CCACTACG
The “PBM E-score” value of the first is lower: -0.216 for the first, -0.0806 for the second.

First: AAACGTCA
Second: ACGGACGC
The “PBM E-score” value of the first is higher: 0.0403 for the first, 0.00311 for the second.

Going from ACCGCGCA to GAACGAGA, the “PBM E-score” value falls from 0.0722 to 0.0551.

First: GTTGGCCA
Second: CAACGCGA
The “PBM E-score” value of the first is lower: -0.209 for the first, -0.0383 for the second.

Compared with CCGCTTCG, AACAAGCA is lower in “PBM E-score” value: 0.0404 for the first, -0.104 for the second.

Compared with CGGTTGGA, AGTATCAA is higher in “PBM E-score” value: -0.0976 for the first, 0.247 for the second.

Compared with TATGTAAA, ATCATCAG is higher in “PBM E-score” value: 0.0564 for the first, 0.16 for the second.

First: CCGGCGCG
Second: AGATGGTG
The “PBM E-score” value of the first is lower: -0.208 for the first, -0.195 for the second.

Going from ATTGAAAT to TTTACAAA, the “PBM E-score” value falls from 0.165 to 0.0556.

Compared with ATTGCAGG, CCCCGTGC is higher in “PBM E-score” value: -0.0936 for the first, 0.0572 for the second.

Going from CCTTTATA to ACATAACG, the “PBM E-score” value rises from -0.056 to 0.201.

Compared with AGCCTTTA, GTGCGAAC is higher in “PBM E-score” value: -0.129 for the first, 0.0503 for the second.

First: ATCGCGGA
Second: CTACAGTC
The “PBM E-score” value of the first is lower: 0.0336 for the first, 0.0846 for the second.

Going from ACCACTCC to ACAGGTAT, the “PBM E-score” value rises from -0.236 to 0.0772.

First: AGAAGATG
Second: CGCGTACC
The “PBM E-score” value of the first is higher: 0.0607 for the first, -0.0297 for the second.

Going from TACGACAA to AAAAGAAT, the “PBM E-score” value falls from 0.298 to 0.243.

Going from GACGCGAA to CCATGTTC, the “PBM E-score” value rises from -0.0205 to 0.0915.

Going from AGATCCGG to ACGATAGA, the “PBM E-score” value rises from -0.268 to 0.21.

First: ACGCACGT
Second: GTTTGACA
The “PBM E-score” value of the first is higher: 0.105 for the first, -0.0939 for the second.

First: CCCGCCGC
Second: TGAAAGAA
The “PBM E-score” value of the first is lower: -0.195 for the first, 0.236 for the second.

First: TCTAAAAA
Second: ACCTTTTC
The “PBM E-score” value of the first is higher: 0.0197 for the first, -0.0974 for the second.

Going from CTGCAGTA to CATCACCA, the “PBM E-score” value rises from -0.173 to 0.176.

Going from CGGGTAGA to AAGGGGAG, the “PBM E-score” value rises from -0.149 to -0.111.

Going from CCTCCACG to ATTTGCGA, the “PBM E-score” value rises from 0.017 to 0.117.

Going from CAGCGGCA to GCGTATCA, the “PBM E-score” value rises from -0.248 to 0.109.

Compared with AAGTCCAC, ACTGAGCG is lower in “PBM E-score” value: -0.198 for the first, -0.252 for the second.

Compared with GGCGTGAA, CCACTGTA is higher in “PBM E-score” value: -0.0515 for the first, 0.0565 for the second.

Compared with AATCGGAC, CTAGCCTC is lower in “PBM E-score” value: -0.224 for the first, -0.24 for the second.

Compared with GAATTGAA, ACCAGTGA is higher in “PBM E-score” value: 0.0262 for the first, 0.0668 for the second.

Going from CGACTTGA to GGCTACAA, the “PBM E-score” value falls from 0.0619 to -0.165.

Compared with ACGAATGA, ACGACGTG is lower in “PBM E-score” value: 0.304 for the first, 0.232 for the second.
